Experimental data reported in publication PMC9599757, “Leveraging the Structure of DNAJA1 to Discover Novel Potential Pancreatic Cancer Therapies” (Biomolecules, 2022).
Results are given in words; binding and its absence hold for the method and conditions named. In cells and extracts the contact can be indirect. These calls come from enrichment with a bait or labelling near it, and not all partners need be listed.

Protein sequences, listed by entry. Tags and fused reporters are not part of them. Residues count along the entry.
UniProt P14136: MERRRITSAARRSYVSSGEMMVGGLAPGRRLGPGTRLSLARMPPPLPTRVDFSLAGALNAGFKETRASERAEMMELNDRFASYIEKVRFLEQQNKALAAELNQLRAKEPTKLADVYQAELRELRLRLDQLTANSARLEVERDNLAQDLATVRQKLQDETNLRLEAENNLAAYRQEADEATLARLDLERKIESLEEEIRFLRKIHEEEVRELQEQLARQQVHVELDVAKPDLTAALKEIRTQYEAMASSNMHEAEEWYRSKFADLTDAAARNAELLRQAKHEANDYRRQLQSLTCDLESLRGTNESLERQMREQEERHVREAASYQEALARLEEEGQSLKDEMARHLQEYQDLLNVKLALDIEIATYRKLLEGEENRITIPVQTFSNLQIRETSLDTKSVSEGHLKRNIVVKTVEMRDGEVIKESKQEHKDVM
UniProt P00367, residues 54-558: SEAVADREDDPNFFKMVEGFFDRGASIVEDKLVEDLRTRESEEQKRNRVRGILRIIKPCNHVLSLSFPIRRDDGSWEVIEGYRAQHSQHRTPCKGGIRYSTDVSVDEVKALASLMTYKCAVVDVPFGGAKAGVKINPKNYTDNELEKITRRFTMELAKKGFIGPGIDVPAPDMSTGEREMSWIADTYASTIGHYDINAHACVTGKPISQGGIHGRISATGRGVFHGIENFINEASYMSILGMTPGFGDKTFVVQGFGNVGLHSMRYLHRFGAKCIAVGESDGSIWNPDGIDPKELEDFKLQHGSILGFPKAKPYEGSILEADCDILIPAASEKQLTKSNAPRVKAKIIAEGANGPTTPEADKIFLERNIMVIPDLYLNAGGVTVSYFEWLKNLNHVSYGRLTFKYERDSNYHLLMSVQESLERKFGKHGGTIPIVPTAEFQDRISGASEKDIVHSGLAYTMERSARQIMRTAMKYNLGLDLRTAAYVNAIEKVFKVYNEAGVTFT
UniProt P02545, residues 1-646: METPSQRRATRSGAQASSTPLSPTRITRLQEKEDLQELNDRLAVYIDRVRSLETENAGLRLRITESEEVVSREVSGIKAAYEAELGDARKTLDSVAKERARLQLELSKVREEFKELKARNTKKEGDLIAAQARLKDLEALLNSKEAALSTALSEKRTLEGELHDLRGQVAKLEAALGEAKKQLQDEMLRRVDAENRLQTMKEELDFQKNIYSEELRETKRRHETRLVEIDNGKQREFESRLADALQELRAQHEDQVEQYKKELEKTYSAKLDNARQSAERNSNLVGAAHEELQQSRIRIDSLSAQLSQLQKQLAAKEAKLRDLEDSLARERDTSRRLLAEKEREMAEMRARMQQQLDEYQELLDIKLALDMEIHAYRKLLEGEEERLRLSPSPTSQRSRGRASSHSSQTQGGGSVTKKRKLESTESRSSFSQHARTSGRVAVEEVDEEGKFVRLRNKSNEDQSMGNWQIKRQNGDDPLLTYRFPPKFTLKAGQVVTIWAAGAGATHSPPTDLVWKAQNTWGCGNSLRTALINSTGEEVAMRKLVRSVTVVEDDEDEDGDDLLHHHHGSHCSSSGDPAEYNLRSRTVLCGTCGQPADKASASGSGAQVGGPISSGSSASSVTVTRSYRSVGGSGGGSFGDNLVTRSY

B1: ADP/ATP translocase 3 (protein, UniProt P12236 1-298)
chain: MTEQAISFAKDFLAGGIAAAISKTAVAPIERVKLLLQVQHASKQIAADKQYKGIVDCIVRIPKEQGVLSFWRGNLANVIRYFPTQALNFAFKDKYKQIFLGGVDKHTQFWRYFAGNLASGGAAGATSLCFVYPLDFARTRLAADVGKSGTEREFRGLGDCLVKITKSDGIRGLYQGFSVSVQGIIIYRAAYFGVYDTAKGMLPDPKNTHIVVSWMIAQTVTAVAGVVSYPFDTVRRRMMMQSGRKGADIMYTGTVDCWRKIFRDEGGKAFFKGAWSNVLRGMGGAFVLVLYDELKKVI
B2: Non-POU domain-containing octamer-binding protein (protein, UniProt Q15233 1-471)
chain: MQSNKTFNLEKQNHTPRKHHQHHHQQQHHQQQQQQPPPPPIPANGQQASSQNEGLTIDLKNFRKPGEKTFTQRSRLFVGNLPPDITEEEMRKLFEKYGKAGEVFIHKDKGFGFIRLETRTLAEIAKVELDNMPLRGKQLRVRFACHSASLTVRNLPQYVSNELLEEAFSVFGQVERAVVIVDDRGRPSGKGIVEFSGKPAARKALDRCSEGSFLLTTFPRPVTVEPMDQLDDEEGLPEKLVIKNQQFHKEREQPPRFAQPGSFEYEYAMRWKALIEMEKQQQDQVDRNIKEAREKLEMEMEAARHEHQVMLMRQDLMRRQEELRRMEELHNQEVQKRKQLELRQEEERRRREEEMRRQQEEMMRRQQEGFKGTFPDAREQEIRMGQMAMGGAMGINNRGAMPPAPVPAGTPAPPGPATMMPDGTLGLTPPTTERFGQAATMEGIGAIGGTPPAFNRAAPGAEFAPNKRRRY
B3: Non-structural maintenance of chromosomes element 1 homolog (protein, UniProt Q8WV22 1-266)
chain: MQGSTRRMGVMTDVHRRFLQLLMTHGVLEEWDVKRLQTHCYKVHDRNATVDKLEDFINNINSVLESLYIEIKRGVTEDDGRPIYALVNLATTSISKMATDFAENELDLFRKALELIIDSETGFASSTNILNLVDQLKGKKMRKKEAEQVLQKFVQNKWLIEKEGEFTLHGRAILEMEQYIRETYPDAVKICNICHSLLIQGQSCETCGIRMHLPCVAKYFQSNAEPRCPHCNDYWPHEIPKVFDPEKERESGVLKSNKKSLRSRQH

Target: DNAJA1-107 (residues 1 to 107 of human DnaJ homolog subfamily A member 1) (human) (UniProt P31689)
Assay: affinity purification with mass spectrometry; Pierce His Protein Interaction Pull-Down Kit: 6x-His DNAJA1-107 immobilised on HisPur cobalt resin, incubated 2 h with clarified RIPA lysate of MIA PaCa-2 cells; co-eluted, SDS-PAGE, bands excised, trypsin digested, LC-MS; control: resin only; only the target purified

binding, binds:
Creatine kinase U-type, mitochondrial (from UniProt P12532 40-417)
Glial fibrillary acidic protein (from UniProt P14136 1-432)
Glutamate dehydrogenase 1, mitochondrial (from UniProt P00367 54-558)
Prelamin-A/C (from UniProt P02545 1-646)
B1
B2
B3
